# Measured values as given in PubChem BioAssay AID330 (DTP/NCI, 2004).
# The list does not hold the whole screen: it is rich in T/C values a quarter to a half above the control, in often repeated tests (any T/C) and in doses without a T/C. Other doses and runs of a compound stand elsewhere. T/C: endpoint of the treated group in % of that of the vehicle group. Some entries give survivors of the animals treated and no T/C: the source files T/C as zero there, which appears to mark a toxic dose or a test without result, not a measured value. Some survivor counts are full or nearly so, which does not show that the dose was tolerated: the source hardly ever lists a survival T/C far under the control, and the zero likely stands for such cases as well. Survivors were counted at the toxicity check, usually on the fifth day, unless a day is given; later deaths do not show. Schedule codes are those of the source, taken here to give the interval after Q, in days (D) or hours (H), and the number of doses after X. Some molecules as drawn cover several salts, stereoisomers or complexes of the source; a dose is that of the sample tested. For survival time, the PubChem record calls one and a half times the control and up active, and a quarter to a half above the control has no call in these data; cut-offs in other NCI protocols can differ. Some entries hold several experiments; their values stand side by side, smallest first. Some T/C values carry the count of animals alive at the toxicity check (mostly the fifth day); without a count, all were alive then.
# Test system: P388 leukemia ip, CD2F1 mice, survival T/C
# Assay: NCI In Vivo Anticancer Drug Screen. Data for tumor model P388 Leukemia (intraperitoneal) in CD2F1 (CDF1) mice
# Conditions: T/C endpoint: median survival time, higher T/C = longer survival
# [1] = dose: 200.0 mg/kg/injection, schedule: Q01DX005 (ip), vehicle: Klucel (hydroxypropylcellulose) (HPC)
# [2] = dose: 100.0 mg/kg/injection, schedule: Q04DX003 (ip), vehicle: saline with Tween-80
# [3] = dose: 200.0 mg/kg/injection, schedule: Q01DX009 (ip), vehicle: saline
# [4] = dose: 6.25 mg/kg/injection, schedule: Q01DX009 (ip), vehicle: saline
# [5] = dose: 200.0 mg/kg/injection, schedule: Q01DX005 (ip), vehicle: saline with Tween-80
# [6] = dose: 100.0 mg/kg/injection, schedule: Q01DX005 (ip), vehicle: saline with Tween-80
structure (smiles),measurement,setting,value
COC(=O)C12CN3CC(C)(C1)C(=O)C(C)(C3)C2=O (centres undefined),survivor count,"dose: 120.0 mg/kg/injection, schedule: Q01DX005 (ip), vehicle: Klucel (hydroxypropylcellulose) (HPC)",6 of 6
Nc1cccc2c1C(=O)c1cccc3snc-2c13,survivor count,[1],3 of 6
O=C1CN(C2OC(CO)C(O)C2O)C(=O)NC1=O (centres undefined),T/C,"dose: 200.0 mg/kg/injection, schedule: Q01DX005 (ip), vehicle: saline",134 % of control
COC(C(N)=O)c1ccccc1 (centres undefined),survivor count,"dose: 100.0 mg/kg/injection, schedule: Q01DX009 (ip), vehicle: saline",6 of 6
CC1C(=O)c2cc3c(cc2CCN(C)Cc2c1ccc1c2OCO1)OCO3 (centres undefined),survivor count,"dose: 20.0 mg/kg/injection, schedule: Q01DX009 (ip), vehicle: saline with Tween-80",2 of 6
same,survivor count,"dose: 25.0 mg/kg/injection, schedule: Q01DX009 (ip), vehicle: saline with Tween-80",6 of 6
same,survivor count,"dose: 40.0 mg/kg/injection, schedule: Q01DX009 (ip), vehicle: saline with Tween-80",0 of 6
same,survivor count,[2],3 of 6
COCCC(=NC(C)(C)C)Nc1c(Cl)cccc1Cl,survivor count,[3],4 of 6
O=[N+]([O-])CC(OCCCCCCO)C(Cl)(Cl)Cl (centres undefined),survivor count,"dose: 200.0 mg/kg/injection, schedule: Q01DX009 (ip), vehicle: saline with Tween-80",3 of 6
CCCCCCCCCCCCCCCC[N+](C)(C)C,T/C,"dose: 3.13 mg/kg/injection, schedule: Q01DX009 (ip), vehicle: saline",130 % of control
same,T/C,[4],125 and 130 % of control
same,survivor count,[4],3 of 6
same,survivor count,"dose: 12.5 mg/kg/injection, schedule: Q01DX009 (ip), vehicle: saline",1 of 6
same,survivor count,"dose: 12.5 mg/kg/injection, schedule: Q04DX003 (ip), vehicle: saline with Tween-80",6 of 6
same,survivor count,"dose: 25.0 mg/kg/injection, schedule: Q04DX003 (ip), vehicle: saline with Tween-80",4 of 6
same,survivor count,[2],0 of 6
same,survivor count,"dose: 200.0 mg/kg/injection, schedule: Q04DX003 (ip), vehicle: saline with Tween-80",0 of 6
same,survivor count,"dose: 400.0 mg/kg/injection, schedule: Q04DX003 (ip), vehicle: saline with Tween-80",0 of 6
COc1ccc2c(c1)CCCC(Br)C2=O (centres undefined),T/C,"dose: 50.0 mg/kg/injection, schedule: Q01DX009 (ip), vehicle: distilled water + alcohol",131 % of control
same,T/C,"dose: 100.0 mg/kg/injection, schedule: Q01DX009 (ip), vehicle: distilled water + alcohol",144 % of control
same,T/C,"dose: 200.0 mg/kg/injection, schedule: Q01DX009 (ip), vehicle: distilled water + alcohol",146 % of control [5 of 6 alive]
same,survivor count,"dose: 400.0 mg/kg/injection, schedule: Q01DX009 (ip), vehicle: distilled water + alcohol",3 of 6
Clc1ccccc1OCc1cnc[nH]1,survivor count,[3],0 of 6
c1nnc2c3c4c(sc3ncn12)CCCC4,survivor count,[5],1 of 6
O=c1ccc2cc3c(c(O)c2o1)OC=CC3,survivor count,"dose: 200.0 mg/kg/injection, schedule: Q01DX009 (ip), vehicle: Klucel (hydroxypropylcellulose) (HPC)",3 of 6
CC(C)NC(=O)OCc1c(COC(=O)NC(C)C)c2n(c1Br)CCC2,survivor count,"dose: 50.0 mg/kg/injection, schedule: Q01DX005 (ip), vehicle: saline with Tween-80",6 of 6
same,survivor count,[6],1 of 6
same,survivor count,[5],0 of 6
Cc1ccc2c(c1)[C@]1(C)O[C@@H](C=C[C@@H]1O)O2,survivor count,"dose: 400.0 mg/kg/injection, schedule: Q01DX001 (ip), vehicle: Klucel (hydroxypropylcellulose) (HPC)",0 of 6
CC1=C(C)C(N2CCOCC2)CS(=O)(=O)O1 (centres undefined),survivor count,[1],0 of 6
Cc1ccc(N)c2ccccc12,survivor count,[3],3 of 6
NC(=S)N/N=C1/C(=O)N(C2CCCCCC2)C(=O)C1C(=O)NC1CCCCCC1 (centres undefined),survivor count,[6],1 of 6
same,survivor count,[5],0 of 6
